# Data reported in the supplement of paper PMC10338343.
# ± gives the standard deviation. Only a part is listed here, and it is no random draw. Many of these values have a large error.
# Test system: MIWI (PIWIL1) piRISC loaded with piRNA #2 (30 nt)
# Assay: pre-steady-state target cleavage rate (min^-1); MIWI and MILI are mouse PIWI proteins and EfPiwi is from a freshwater sponge; tags in brackets are library labels; higher = faster piRNA-guided slicing of the target
# Settings: guide: piRNA #2 5'p-UUAGGUAACCCAGUAGAUCCAGAGGAAUUC; auxiliary factor: 500 nM mouse GTSF1
# Procedure, shortened: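 A transcribed, DNA-blocked target RNA library (0.1 nM) and 1 nM active affinity-purified piRISC bearing one synthetic guide were incubated in HEPES–potassium acetate buffer at 33 °C for 0–8 or 0–960 min, either with or without 500 nM GTSF1 partner protein. Uncleaved targets were sequenced, normalised to depth and to weakly complementary targets, and pooled over three trials, with k3 capped at 0.0001 min^-1. The pre-steady-state cleavage rate was derived with a burst-and-steady-state fit.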
row,Sequence,pre-steady-state target cleavage rate
1,CUUAAGGUCUGGAUCUACUCGGUUACCUAA,0.0416 ± 0.02
2,CUUAACCUCUGGAUCUACUCGGGUUACCUAA,0.00194 ± 0.006
3,CUUAAGGAGACCAUCUACUGGGUAUGCUAA,0.000306 ± 0.021
4,CUUAAGGAGACCUACUACUUGGUUACCUAA,0.000718 ± 0.006
5,CUUAAGGAGACCUUCUACUGGGUUAUCUAA,0.00164 ± 0.0085
6,CUUAAGGAGACGCUCUACUGGGUUACCUAA,0.00372 ± 0.0038
7,CUUAAGGAGAGGAUCUUCUGGGUUACCAAA,0.000238 ± 0.02
8,CUUAAGGAGACCAUCUAGUGGGUUACCUAA,0.00148 ± 0.0062
9,CUUAAGGAGACCUAGAUGAGGGUUCCUAA,0.00122 ± 0.0085
10,CUUAAGGAGUCGAUCUACAGGGUUACCUAA,0.000661 ± 0.015
11,GAAUUCCUCUGGAUCUACUGGGAAUGGAUA [g9:g30:cont:t1A],0.00231 ± 0.0055
12,CUUAAGGACUCGAUCAACUGGGUUACCUAA,0.0026 ± 0.0094
13,CUUAACCUCUGGAUCUACUGGGAAUGGAUA [g9:g25:cont:t1A],0.000133 ± 0.049
14,CUUUUCCUCUGGAUCUACUGUGGUUACCUAA,0.00172 ± 0.0046
15,CUUAAGGAGACCUUCUACUCGGUAACCUAA,0.000225 ± 0.047
16,CUUAAGGUCUGGAUCUACUGGGUUAGGAUA [g6:g23:cont:t1A],0.00119 ± 0.019
17,CUUAAGGAGACCUAAUACUGGGUUACCUAA,0.00183 ± 0.005
18,CUUAAGGAGACCUAGUACUGGGUUACCUCA,0.000957 ± 0.0079
19,CUUAAGGUCUGGAUCUACUGGGUUAGGAAA,0.00262 ± 0.0079
20,CUUAUCCUCUGGAUCUCUGGGUUACCUAA,0.00296 ± 0.0047
21,CUUAAGGACUGGAUCGUACUGGGUUACCUAA,0.000417 ± 0.035
22,CUUAAGGAGACGUAUCUACUGGGUUACCUAA,0.00127 ± 0.0057
23,CUUAAGGUCUGGAUCUACUGGGUUUGCUAA,0.0859 ± 0.018
24,CUUAAGGAGUGGAUCUUCUGGGUUACCAAA,0.00146 ± 0.012

# Reformatted with bars between the fields: entries from further up
row | Sequence | pre-steady-state target cleavage rate
8 | CUUAAGGAGACCAUCUAGUGGGUUACCUAA | 0.00148 ± 0.0062
9 | CUUAAGGAGACCUAGAUGAGGGUUCCUAA | 0.00122 ± 0.0085
10 | CUUAAGGAGUCGAUCUACAGGGUUACCUAA | 0.000661 ± 0.015
11 | GAAUUCCUCUGGAUCUACUGGGAAUGGAUA [g9:g30:cont:t1A] | 0.00231 ± 0.0055
12 | CUUAAGGACUCGAUCAACUGGGUUACCUAA | 0.0026 ± 0.0094
13 | CUUAACCUCUGGAUCUACUGGGAAUGGAUA [g9:g25:cont:t1A] | 0.000133 ± 0.049

# Later entries:

row,Sequence,pre-steady-state target cleavage rate
1,CUAUUCCUCUGGAUCUACUGGCAAACCUAA,0.00265 ± 0.0034
2,CUAUUCCUCUGGAUCUACUCCCAAUGGAUA [g12:g28:cont:t1A],0.000114 ± 0.043
3,CUUAUCCUGUGGAUCUACUGGGUUACCUAA,0.443 ± 0.056
4,CAAUUCCUCUGGAUCUCCUGGGUUACCUAA,0.231 ± 0.051
5,CUUAAGGAGUGGAUCUACUGGCGUUACCUAA,0.00416 ± 0.0061
6,CUUAAGGAGUGCAACUACUGGGUUACCUAA,0.000272 ± 0.043
7,CAAUUCCUCAGCAUCUACUGGGUUACCUAA,0.437 ± 0.044
8,CUUAAGGAGUGGAUGUACUGGGAUACCUAA,0.00459 ± 0.0056
9,CUUAAGGAGACCAUCUAGAGGGUUACCUAA,0.00123 ± 0.0065
10,CUUAAGGAGACCUUCUACUGAGGUUACCUAA,0.00175 ± 0.0056
11,CUUAAGGACUGGAUCUACUGGGUUUCCUUA,0.00185 ± 0.013
12,CUUAAGGACUGGAUCUACUGGGAUUACCUAA,0.00587 ± 0.012
13,CUUAAGGAGAGGAUCUACUGGCUUACCUUA,0.000453 ± 0.025
14,CUUAAGGAGACCUACUACUGGGUUACGUUA,0.00138 ± 0.0059
15,CUUAAGGAGACCUAGAAACUGGGUUACCUAA,0.000942 ± 0.01
16,CUUAAGGAGACCUCCUACUGGGUUACCUAA,0.00374 ± 0.0053
17,CUUAAGGAGACCUAGAUCUGGGGUUACCUAA,0.000832 ± 0.0097
18,CUUAAGGAGUGGAUCUACAGGCUUACCUAA,0.00253 ± 0.01
19,CUUAAGGACUCGAUGUACUGGGUUACCUAA,0.00718 ± 0.0079
20,CUUUUCCUCUGGAUCUACUUGGGUUACCUAA,0.00187 ± 0.0054
21,CUUAAGGAGACCAUCUACUGGGUUACGCUAA,0.00108 ± 0.0054
22,CUAUUCCUCUCGUUCUACUGGGUUACCUAA,0.75 ± 0.077
23,CUUAAGGAGUGGAUCUUCUGGGUUUCCUAA,0.00101 ± 0.0091
24,CUUAAGGAGAGGAUCUACUGGGUUACUCUAA,0.0043 ± 0.0056

row,Sequence,pre-steady-state target cleavage rate
1,CUUAAGCUCUGGAUCUUGAGGGUUACCUAA,0.00114 ± 0.0087
2,CUUAAGGAGACCUACUACUCGGUUACCUAA,0.00059 ± 0.011
3,CUUAUCCUCUGGAUCUACUGGGUUAGGAUA [g6:g26:cont:t1A],0.00315 ± 0.0041
4,CUUAAGGAGUCGAUCUUCUGGGUUACCUAA,0.000186 ± 0.033
5,CUAAUCCUCUCGAUCUACUGGGUUACCUAA,0.631 ± 0.042
6,CUUAAGGAGACCUACUACUCGGUUACCAAA,0.000108 ± 0.052
7,CUUAAGGAGAGCAUCAACUGGGUUACCUAA,0.00152 ± 0.0041
8,GAAUUCCUCUGGAUUACUGGGUUACCUAA,0.413 ± 0.04
9,CUUAAGGAGACCUACUGACUGGGUUACCUAA,0.000321 ± 0.013
10,CUUAAGGAGAGCAUCUACUGGGUUAGCUAA,0.00135 ± 0.0047
11,CUUAAGGAGACGAUCUACUGGGUUACCAAA,0.00128 ± 0.0064
12,CUUAAGGAGACCAUCUAACUGGGUUACCUAA,0.000909 ± 0.0068
13,CUUAAGGAGACCUUCUACUGGGAUUCCUAA,0.00107 ± 0.008
14,CUUAAGGAGACCUAGAUGACCGUUACCUUA,0.000231 ± 0.025
15,CUUAAGGACUGGAUCUACUGGCAUACCUAA,0.00297 ± 0.014
16,CUUAAGGAGUGGAUCUACGUGGGUUACCUAA,0.000227 ± 0.036
17,CUUAAGGAGACCUAGAACCUGGGUUACCUAA,0.000117 ± 0.023
18,CUUAAGGAGACCAUGUACUGGCUUACCUAA,0.000125 ± 0.031
19,CUUAAGGAGACCUACGUACUGGGUUACCUAA,0.00075 ± 0.011
20,CAAUUCCUCUGGAUCUACUGAGGUUACCUAA,0.00648 ± 0.0048
21,CAAUUCCUCUGGAUCUACUAGGGUUACCUAA,0.00464 ± 0.0052
22,CUUAAGGAGUCGAUCUACUGGGUUUCCUAA,0.000488 ± 0.012
23,CUUAAGGAGACCUUGUACUGGGUAACCUAA,0.000332 ± 0.019
